No constants are given. Whether binding was seen depends on the method and setting. In cells and extracts the contact can be indirect. Some results given as binding are weak or reduced against the parent protein; the word gives no strength. For some assays here: Where a sequence is shown, tags or fusion partners need not be part of it. Values belong to the binder of their own block, whether it stands above or below them.
How the values were obtained:
[1] = molecular target: T1, SYFP2_(210-238)-PAICS (human) (UniProt P22234); assay: split reporter; BiFC with SYFP2_(1-215) and SYFP2_(210-238) fragments in live WT HeLa cells, imaged 24 h after cotransfection at 37 °C, 5% CO2; signal judged against self-cleaving P2A control constructs; purine-depleted and purine-rich media gave essentially identical signals
T1 sequence: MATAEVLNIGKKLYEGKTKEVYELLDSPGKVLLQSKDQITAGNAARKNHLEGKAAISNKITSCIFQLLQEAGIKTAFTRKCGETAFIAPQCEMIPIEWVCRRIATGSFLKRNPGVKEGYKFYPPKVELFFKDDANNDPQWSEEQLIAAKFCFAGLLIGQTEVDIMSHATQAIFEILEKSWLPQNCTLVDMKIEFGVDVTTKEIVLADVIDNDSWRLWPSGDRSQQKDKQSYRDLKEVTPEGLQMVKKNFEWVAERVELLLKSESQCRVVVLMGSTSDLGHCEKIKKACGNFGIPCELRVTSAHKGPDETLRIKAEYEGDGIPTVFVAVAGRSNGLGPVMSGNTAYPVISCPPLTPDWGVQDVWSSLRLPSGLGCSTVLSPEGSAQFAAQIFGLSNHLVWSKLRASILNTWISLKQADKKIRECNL

[2] = molecular target: T2, PAICS tagged at its C terminus with SYFP2_(210-238) fragment (human) (UniProt P22234); assay: as above
T2 sequence: T1 sequence

[3] = molecular target: T3, PAICS-2×Strep (overexpressed in HEK293T) (human) (UniProt P22234); assay: co-IP; anti-StrepTag affinity purification of StrepTag-labeled PAICS overexpressed in HEK293T cells grown in purine-depleted conditions; Western blot for endogenous PAICS
T3 sequence: T1 sequence

[4] = molecular target: T4, 2×Strep-PAICS (overexpressed in HEK293T) (human) (UniProt P22234); assay: as above
T4 sequence: T1 sequence

B1: SYFP2_(1-215)-ADSL (enzyme, UniProt P30566 1-484)
chain: MAAGGDHGSPDSYRSPLASRYASPEMCFVFSDRYKFRTWRQLWLWLAEAEQTLGLPITDEQIQEMKSNLENIDFKMAAEEEKRLRHDVMAHVHTFGHCCPKAAGIIHLGATSCYVGDNTDLIILRNALDLLLPKLARVISRLADFAKERASLPTLGFTHFQPAQLTTVGKRCCLWIQDLCMDLQNLKRVRDDLRFRGVKGTTGTQASFLQLFEGDDHKVEQLDKMVTEKAGFKRAFIITGQTYTRKVDIEVLSVLASLGASVHKICTDIRLLANLKEMEEPFEKQQIGSSAMPYKRNPMRSERCCSLARHLMTLVMDPLQTASVQWFERTLDDSANRRICLAEAFLTADTILNTLQNISEGLVVYPKVIERRIRQELPFMATENIIMAMVKAGGSRQDCHEKIRVLSQQAASVVKQEGGDNDLIERIQVDAYFSPIHSQLDHLLDPSSFTGRASQQVQRFLEEEVYPLLKPYESVMKVKAELCL
binding [1]: binds

B2: PAICS C-terminal-labeled with SYFP2_(1-215) (enzyme, UniProt P22234 1-425)
chain: T1 sequence
binding [2]: binds

The next lines start with the values.

binding [1]: binds
B3: SYFP2_(1-215)-PAICS (enzyme, UniProt P22234 1-425)
chain: T1 sequence

binding [3]: binds
binding [4]: binds
B4: endogenous PAICS (HEK293T) (enzyme, UniProt P22234 1-425)
chain: T1 sequence

Source: publication PMC9035706
